In the supplement of paper PMC8728848:
This is one part of the list.

Key:
Test in all cases: glycan array binding signal (z-score within array); higher = stronger binding
Conditions in all cases: glycan notation: IUPAC condensed, linker removed
[1] = biological target: GlcNAc(b1-2)Gal(b1-3)GalNAc
In short: (§1)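 Columns mapping to the same glycan were averaged after glycan names were converted to IUPAC-condensed notation. The data come from 3228 arrays in the Consortium for Functional Glycomics database, limited to those with an available protein sequence. Binding is reported as a within-array Z-score averaged across arrays of one protein sequence and across linkers.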

[2] = biological target: GlcNAc(b1-2)Man(a1-3)[GlcNAc(b1-2)Man(a1-6)]Man(b1-4)GlcNAc(b1-4)GlcNAc
In short: as §1

[3] = biological target: GlcNAc(b1-2)Man(a1-3)[GlcNAc(b1-2)Man(a1-6)]Man(b1-4)GlcNAc(b1-4)[Fuc(a1-6)]GlcNAc
In short: as §1

[4] = biological target: GlcNAc(b1-2)Man(a1-3)[GlcNAc(b1-4)][GlcNAc(b1-2)Man(a1-6)]Man(b1-4)GlcNAc(b1-4)GlcNAc
In short: as §1

[5] = biological target: GlcNAc(b1-2)Man(a1-3)[GlcNAc(b1-4)][GlcNAc(b1-2)Man(a1-6)]Man(b1-4)GlcNAc(b1-4)[Fuc(a1-6)]GlcNAc
In short: as §1

[6] = biological target: GlcNAc(b1-2)[GlcNAc(b1-4)]Man(a1-3)[GlcNAc(b1-2)Man(a1-6)]Man(b1-4)GlcNAc(b1-4)GlcNAc
In short: as §1

[7] = biological target: GlcNAc(b1-2)[GlcNAc(b1-4)]Man(a1-3)[GlcNAc(b1-4)][GlcNAc(b1-2)Man(a1-6)]Man(b1-4)GlcNAc(b1-4)GlcNAc
In short: as §1

[8] = biological target: GlcNAc(b1-2)[GlcNAc(b1-4)]Man(a1-3)[GlcNAc(b1-4)][GlcNAc(b1-2)[GlcNAc(b1-6)]Man(a1-6)]Man(b1-4)GlcNAc(b1-4)GlcNAc
In short: as §1

[9] = biological target: GlcNAc(b1-2)[GlcNAc(b1-4)]Man(a1-3)[GlcNAc(b1-4)][GlcNAc(b1-2)[GlcNAc(b1-6)]Man(a1-6)]Man(b1-4)GlcNAc(b1-4)[Fuc(a1-6)]GlcNAc
In short: as §1

[10] = biological target: GlcNAc(b1-2)[GlcNAc(b1-6)]Man(a1-6)[GlcNAc(b1-2)Man(a1-3)]Man(b1-4)GlcNAc(b1-4)GlcNAc
In short: as §1

[11] = biological target: GlcNAc(b1-2)[GlcNAc(b1-6)]Man(a1-6)[GlcNAc(b1-2)Man(a1-3)]Man(b1-4)GlcNAc(b1-4)[Fuc(a1-6)]GlcNAc
In short: as §1

[12] = biological target: GlcNAc(b1-2)[GlcNAc(b1-6)]Man(a1-6)[GlcNAc(b1-4)][GlcNAc(b1-2)Man(a1-3)]Man(b1-4)GlcNAc(b1-4)GlcNAc
In short: as §1

GlcNAc(b1-3)Fuc = biological target: GlcNAc(b1-3)Fuc
In short: as §1

GlcNAc(b1-3)Gal = biological target: GlcNAc(b1-3)Gal
In short: as §1

[13] = biological target: GlcNAc(b1-3)Gal(b1-3)GalNAc
In short: as §1

GlcNAc(b1-3)Gal(b1-4)Glc = biological target: GlcNAc(b1-3)Gal(b1-4)Glc
In short: as §1

[14] = biological target: GlcNAc(b1-3)Gal(b1-4)GlcNAc
In short: as §1

[15] = biological target: GlcNAc(b1-3)Gal(b1-4)GlcNAc(b1-2)Man(a1-3)[GlcNAc(b1-3)Gal(b1-4)GlcNAc(b1-2)Man(a1-6)]Man(b1-4)GlcNAc(b1-4)GlcNAc
In short: as §1

[16] = biological target: GlcNAc(b1-3)Gal(b1-4)GlcNAc(b1-2)Man(a1-3)[GlcNAc(b1-3)Gal(b1-4)GlcNAc(b1-2)Man(a1-6)]Man(b1-4)GlcNAc(b1-4)[Fuc(a1-6)]GlcNAc
In short: as §1

[17] = biological target: GlcNAc(b1-3)Gal(b1-4)GlcNAc(b1-2)[GlcNAc(b1-3)Gal(b1-4)GlcNAc(b1-6)]Man(a1-6)[GlcNAc(b1-3)Gal(b1-4)GlcNAc(b1-2)Man(a1-3)]Man(b1-4)GlcNAc(b1-4)GlcNAc
In short: as §1

[18] = biological target: GlcNAc(b1-3)Gal(b1-4)GlcNAc(b1-3)Gal(b1-4)GlcNAc
In short: as §1

[19] = biological target: GlcNAc(b1-3)Gal(b1-4)GlcNAc(b1-3)Gal(b1-4)GlcNAc(b1-2)Man(a1-3)[GlcNAc(b1-3)Gal(b1-4)GlcNAc(b1-3)Gal(b1-4)GlcNAc(b1-2)Man(a1-6)]Man(b1-4)GlcNAc(b1-4)GlcNAc
In short: as §1

[20] = biological target: GlcNAc(b1-3)Gal(b1-4)GlcNAc(b1-3)Gal(b1-4)GlcNAc(b1-2)Man(a1-3)[GlcNAc(b1-3)Gal(b1-4)GlcNAc(b1-3)Gal(b1-4)GlcNAc(b1-2)Man(a1-6)]Man(b1-4)GlcNAc(b1-4)[Fuc(a1-6)]GlcNAc
In short: as §1

[21] = biological target: GlcNAc(b1-3)Gal(b1-4)GlcNAc(b1-3)Gal(b1-4)GlcNAc(b1-2)[GlcNAc(b1-3)Gal(b1-4)GlcNAc(b1-3)Gal(b1-4)GlcNAc(b1-6)]Man(a1-6)[GlcNAc(b1-3)Gal(b1-4)GlcNAc(b1-3)Gal(b1-4)GlcNAc(b1-2)Man(a1-3)]Man(b1-4)GlcNAc(b1-4)[Fuc(a1-6)]GlcNAc
In short: as §1

[22] = biological target: GlcNAc(b1-3)Gal(b1-4)GlcNAc(b1-3)Gal(b1-4)GlcNAc(b1-3)Gal(b1-4)GlcNAc(b1-2)Man(a1-3)[GlcNAc(b1-3)Gal(b1-4)GlcNAc(b1-3)Gal(b1-4)GlcNAc(b1-3)Gal(b1-4)GlcNAc(b1-2)Man(a1-6)]Man(b1-4)GlcNAc(b1-4)GlcNAc
In short: as §1

[23] = biological target: GlcNAc(b1-3)Gal(b1-4)GlcNAc(b1-3)Gal(b1-4)GlcNAc(b1-3)Gal(b1-4)GlcNAc(b1-2)Man(a1-3)[GlcNAc(b1-3)Gal(b1-4)GlcNAc(b1-3)Gal(b1-4)GlcNAc(b1-3)Gal(b1-4)GlcNAc(b1-2)Man(a1-6)]Man(b1-4)GlcNAc(b1-4)[Fuc(a1-6)]GlcNAc
In short: as §1

[24] = biological target: GlcNAc(b1-3)Gal(b1-4)GlcNAc(b1-3)Gal(b1-4)GlcNAc(b1-3)Gal(b1-4)GlcNAc(b1-2)[GlcNAc(b1-3)Gal(b1-4)GlcNAc(b1-3)Gal(b1-4)GlcNAc(b1-3)Gal(b1-4)GlcNAc(b1-6)]Man(a1-6)[GlcNAc(b1-3)Gal(b1-4)GlcNAc(b1-3)Gal(b1-4)GlcNAc(b1-3)Gal(b1-4)GlcNAc(b1-2)Man(a1-3)]Man(b1-4)GlcNAc(b1-4)[Fuc(a1-6)]GlcNAc
In short: as §1

[25] = biological target: GlcNAc(b1-3)Gal(b1-4)GlcNAc(b1-3)Gal(b1-4)GlcNAc(b1-3)Gal(b1-4)GlcNAc(b1-3)Gal(b1-4)GlcNAc(b1-2)Man(a1-3)[GlcNAc(b1-3)Gal(b1-4)GlcNAc(b1-3)Gal(b1-4)GlcNAc(b1-3)Gal(b1-4)GlcNAc(b1-3)Gal(b1-4)GlcNAc(b1-2)Man(a1-6)]Man(b1-4)GlcNAc(b1-4)GlcNAc
In short: as §1

[26] = biological target: GlcNAc(b1-3)Gal(b1-4)GlcNAc(b1-3)Gal(b1-4)GlcNAc(b1-3)Gal(b1-4)GlcNAc(b1-3)Gal(b1-4)GlcNAc(b1-2)Man(a1-3)[GlcNAc(b1-3)Gal(b1-4)GlcNAc(b1-3)Gal(b1-4)GlcNAc(b1-3)Gal(b1-4)GlcNAc(b1-3)Gal(b1-4)GlcNAc(b1-2)Man(a1-6)]Man(b1-4)GlcNAc(b1-4)[Fuc(a1-6)]GlcNAc
In short: as §1

[27] = biological target: GlcNAc(b1-3)Gal(b1-4)GlcNAc(b1-3)Gal(b1-4)GlcNAc(b1-3)Gal(b1-4)GlcNAc(b1-3)Gal(b1-4)GlcNAc(b1-2)[GlcNAc(b1-3)Gal(b1-4)GlcNAc(b1-3)Gal(b1-4)GlcNAc(b1-3)Gal(b1-4)GlcNAc(b1-3)Gal(b1-4)GlcNAc(b1-6)]Man(a1-6)[GlcNAc(b1-3)Gal(b1-4)GlcNAc(b1-3)Gal(b1-4)GlcNAc(b1-3)Gal(b1-4)GlcNAc(b1-3)Gal(b1-4)GlcNAc(b1-2)Man(a1-3)]Man(b1-4)GlcNAc(b1-4)[Fuc(a1-6)]GlcNAc
In short: as §1

[28] = biological target: GlcNAc(b1-3)Gal(b1-4)GlcNAc(b1-3)Gal(b1-4)GlcNAc(b1-3)GalNAc
In short: as §1

[29] = biological target: GlcNAc(b1-3)Gal(b1-4)GlcNAc(b1-3)GalNAc
In short: as §1

[30] = biological target: GlcNAc(b1-3)Gal(b1-4)GlcNAc(b1-3)[GlcNAc(b1-3)Gal(b1-4)GlcNAc(b1-3)]GalNAc
In short: as §1

[31] = biological target: GlcNAc(b1-3)Gal(b1-4)GlcNAc(b1-6)[Gal(b1-3)]GalNAc
In short: as §1

[32] = biological target: GlcNAc(b1-3)Gal(b1-4)GlcNAc(b1-6)[GlcNAc(b1-3)Gal(b1-3)]GalNAc
In short: as §1

[33] = biological target: GlcNAc(b1-3)Gal(b1-4)GlcNAc(b1-6)[GlcNAc(b1-3)]Gal(b1-4)GlcNAc
In short: as §1

GlcNAc(b1-3)GalNAc = biological target: GlcNAc(b1-3)GalNAc
In short: as §1

B1: Sp8391B-bot-388-20-388 (Bacteroides ovatus) (protein)
chain: GCQNNDENEQHYDNKLFISASNFTKEILFKAGDTNVETGLSVAIAKPEEHDIKVTMSPAPELLSTYKLAYYDETAVLLSEEHYSMPETSTTIKSGSIVSPELPIEFINTGELDIKTTYVLPVTIKSVEGIGVLQSAKTYYYVFRGASLINVVCNISRNRAYPDFKNDSKFNNLTENTMEILFKANSFPNTLNTLMGIESNYLLRIGDATIPNNQLQVATSVNNCTSADLQLESGKWYHVAVAFNKGNVKVYINGVEKLSGSTGKSSVSLGAKHTNEEDGSRCFWVGYSYKDDRYFDGVVSEVRIWNRALTAEEIQATNHFYTIEPESEGLIAYWKFDEGSGTVAKDYSVSGYDLTIEKEPKWESVSLPQ
[1]
  glycan array binding signal (z-score): -0.108
[2]
  glycan array binding signal (z-score): -0.408
[3]
  glycan array binding signal (z-score): 0.213
[4]
  glycan array binding signal (z-score): -0.101
[5]
  glycan array binding signal (z-score): 0.694
[6]
  glycan array binding signal (z-score): -0.957
[7]
  glycan array binding signal (z-score): -0.344
[8]
  glycan array binding signal (z-score): -0.672
[9]
  glycan array binding signal (z-score): -0.492
[10]
  glycan array binding signal (z-score): -0.225
[11]
  glycan array binding signal (z-score): 0.418
[12]
  glycan array binding signal (z-score): -0.107
GlcNAc(b1-3)Fuc
  glycan array binding signal (z-score): -0.326
GlcNAc(b1-3)Gal
  glycan array binding signal (z-score): -0.232
[13]
  glycan array binding signal (z-score): 0.085
GlcNAc(b1-3)Gal(b1-4)Glc
  glycan array binding signal (z-score): -0.949
[14]
  glycan array binding signal (z-score): -0.27
[15]
  glycan array binding signal (z-score): 0.607
[16]
  glycan array binding signal (z-score): -0.621
[17]
  glycan array binding signal (z-score): 0.617
[18]
  glycan array binding signal (z-score): -0.184
[19]
  glycan array binding signal (z-score): 0.656
[20]
  glycan array binding signal (z-score): 0.781
[21]
  glycan array binding signal (z-score): -0.347
[22]
  glycan array binding signal (z-score): -0.679
[23]
  glycan array binding signal (z-score): 2.65
[24]
  glycan array binding signal (z-score): 0.958
[25]
  glycan array binding signal (z-score): -0.236
[26]
  glycan array binding signal (z-score): 0.345
[27]
  glycan array binding signal (z-score): 0.482
[28]
  glycan array binding signal (z-score): -0.298
[29]
  glycan array binding signal (z-score): 0.039
[30]
  glycan array binding signal (z-score): -0.103
[31]
  glycan array binding signal (z-score): -0.391
[32]
  glycan array binding signal (z-score): 1.69
[33]
  glycan array binding signal (z-score): 0.152
GlcNAc(b1-3)GalNAc
  glycan array binding signal (z-score): -0.328
